Measurements from paper PMC5323126.

Sequences of proteins named here, by UniProt entry; tags and fusion partners are left off.
UniProt Q14258: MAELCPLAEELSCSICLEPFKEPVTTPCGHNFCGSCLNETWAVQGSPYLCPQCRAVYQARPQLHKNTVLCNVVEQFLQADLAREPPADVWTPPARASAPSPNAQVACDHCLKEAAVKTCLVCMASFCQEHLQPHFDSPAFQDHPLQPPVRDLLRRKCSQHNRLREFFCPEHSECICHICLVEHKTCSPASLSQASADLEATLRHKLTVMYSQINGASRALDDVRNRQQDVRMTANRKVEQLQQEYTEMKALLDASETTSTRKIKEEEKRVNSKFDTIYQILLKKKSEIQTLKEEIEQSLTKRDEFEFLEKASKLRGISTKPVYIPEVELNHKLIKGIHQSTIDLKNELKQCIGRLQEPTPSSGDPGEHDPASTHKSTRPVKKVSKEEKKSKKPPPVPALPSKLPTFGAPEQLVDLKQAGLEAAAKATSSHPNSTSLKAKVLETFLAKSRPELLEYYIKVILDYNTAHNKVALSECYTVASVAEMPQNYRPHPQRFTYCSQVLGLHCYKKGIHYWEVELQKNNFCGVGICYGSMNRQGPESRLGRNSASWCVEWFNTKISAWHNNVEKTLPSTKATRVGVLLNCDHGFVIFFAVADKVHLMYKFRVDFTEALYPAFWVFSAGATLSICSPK

Molecular target: T1, ERG-V5 (full-length Ets related gene protein, V5-tagged) (UniProt P11308)
T1 sequence: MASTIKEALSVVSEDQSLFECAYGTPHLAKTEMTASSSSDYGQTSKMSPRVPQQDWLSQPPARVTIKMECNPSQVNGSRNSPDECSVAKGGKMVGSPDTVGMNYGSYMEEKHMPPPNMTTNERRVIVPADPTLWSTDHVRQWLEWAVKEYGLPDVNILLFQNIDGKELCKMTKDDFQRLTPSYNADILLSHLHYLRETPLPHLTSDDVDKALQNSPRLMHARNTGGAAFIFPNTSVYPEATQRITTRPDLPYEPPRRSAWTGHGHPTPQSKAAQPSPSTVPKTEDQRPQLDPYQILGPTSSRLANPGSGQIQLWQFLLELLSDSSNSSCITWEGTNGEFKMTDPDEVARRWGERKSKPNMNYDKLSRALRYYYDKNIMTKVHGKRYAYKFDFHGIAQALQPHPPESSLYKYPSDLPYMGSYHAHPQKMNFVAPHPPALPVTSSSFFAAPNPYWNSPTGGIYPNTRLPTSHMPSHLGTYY
Experiment: affinity purification with mass spectrometry; ERG-V5 immunoprecipitated from HEK293T with a V5 antibody as bait; VCaP whole cell extract; eluted proteins separated by SDS-PAGE, HPLC/MS/MS of tryptic peptides; only the target purified

For “Tripartite motif-containing protein 25 (TRIM25), endogenous in VCaP cells (from UniProt Q14258 1-630)”, the binding was “binds”.

No constants are given. Whether binding was seen depends on the method and setting. In cells and extracts the contact can be indirect. These calls come from enrichment with a bait or labelling near it, and not all partners need be listed. Tags and fused reporters may be left off the sequences shown.
